Ten substances from PMC12482187 can be followed below.

Protein sequences, listed by entry. Tags and fused reporters are not part of them. Lines headed by an entry give the natural chain unless they say otherwise; changes in a name come on top.
UniProt Q2LKW8: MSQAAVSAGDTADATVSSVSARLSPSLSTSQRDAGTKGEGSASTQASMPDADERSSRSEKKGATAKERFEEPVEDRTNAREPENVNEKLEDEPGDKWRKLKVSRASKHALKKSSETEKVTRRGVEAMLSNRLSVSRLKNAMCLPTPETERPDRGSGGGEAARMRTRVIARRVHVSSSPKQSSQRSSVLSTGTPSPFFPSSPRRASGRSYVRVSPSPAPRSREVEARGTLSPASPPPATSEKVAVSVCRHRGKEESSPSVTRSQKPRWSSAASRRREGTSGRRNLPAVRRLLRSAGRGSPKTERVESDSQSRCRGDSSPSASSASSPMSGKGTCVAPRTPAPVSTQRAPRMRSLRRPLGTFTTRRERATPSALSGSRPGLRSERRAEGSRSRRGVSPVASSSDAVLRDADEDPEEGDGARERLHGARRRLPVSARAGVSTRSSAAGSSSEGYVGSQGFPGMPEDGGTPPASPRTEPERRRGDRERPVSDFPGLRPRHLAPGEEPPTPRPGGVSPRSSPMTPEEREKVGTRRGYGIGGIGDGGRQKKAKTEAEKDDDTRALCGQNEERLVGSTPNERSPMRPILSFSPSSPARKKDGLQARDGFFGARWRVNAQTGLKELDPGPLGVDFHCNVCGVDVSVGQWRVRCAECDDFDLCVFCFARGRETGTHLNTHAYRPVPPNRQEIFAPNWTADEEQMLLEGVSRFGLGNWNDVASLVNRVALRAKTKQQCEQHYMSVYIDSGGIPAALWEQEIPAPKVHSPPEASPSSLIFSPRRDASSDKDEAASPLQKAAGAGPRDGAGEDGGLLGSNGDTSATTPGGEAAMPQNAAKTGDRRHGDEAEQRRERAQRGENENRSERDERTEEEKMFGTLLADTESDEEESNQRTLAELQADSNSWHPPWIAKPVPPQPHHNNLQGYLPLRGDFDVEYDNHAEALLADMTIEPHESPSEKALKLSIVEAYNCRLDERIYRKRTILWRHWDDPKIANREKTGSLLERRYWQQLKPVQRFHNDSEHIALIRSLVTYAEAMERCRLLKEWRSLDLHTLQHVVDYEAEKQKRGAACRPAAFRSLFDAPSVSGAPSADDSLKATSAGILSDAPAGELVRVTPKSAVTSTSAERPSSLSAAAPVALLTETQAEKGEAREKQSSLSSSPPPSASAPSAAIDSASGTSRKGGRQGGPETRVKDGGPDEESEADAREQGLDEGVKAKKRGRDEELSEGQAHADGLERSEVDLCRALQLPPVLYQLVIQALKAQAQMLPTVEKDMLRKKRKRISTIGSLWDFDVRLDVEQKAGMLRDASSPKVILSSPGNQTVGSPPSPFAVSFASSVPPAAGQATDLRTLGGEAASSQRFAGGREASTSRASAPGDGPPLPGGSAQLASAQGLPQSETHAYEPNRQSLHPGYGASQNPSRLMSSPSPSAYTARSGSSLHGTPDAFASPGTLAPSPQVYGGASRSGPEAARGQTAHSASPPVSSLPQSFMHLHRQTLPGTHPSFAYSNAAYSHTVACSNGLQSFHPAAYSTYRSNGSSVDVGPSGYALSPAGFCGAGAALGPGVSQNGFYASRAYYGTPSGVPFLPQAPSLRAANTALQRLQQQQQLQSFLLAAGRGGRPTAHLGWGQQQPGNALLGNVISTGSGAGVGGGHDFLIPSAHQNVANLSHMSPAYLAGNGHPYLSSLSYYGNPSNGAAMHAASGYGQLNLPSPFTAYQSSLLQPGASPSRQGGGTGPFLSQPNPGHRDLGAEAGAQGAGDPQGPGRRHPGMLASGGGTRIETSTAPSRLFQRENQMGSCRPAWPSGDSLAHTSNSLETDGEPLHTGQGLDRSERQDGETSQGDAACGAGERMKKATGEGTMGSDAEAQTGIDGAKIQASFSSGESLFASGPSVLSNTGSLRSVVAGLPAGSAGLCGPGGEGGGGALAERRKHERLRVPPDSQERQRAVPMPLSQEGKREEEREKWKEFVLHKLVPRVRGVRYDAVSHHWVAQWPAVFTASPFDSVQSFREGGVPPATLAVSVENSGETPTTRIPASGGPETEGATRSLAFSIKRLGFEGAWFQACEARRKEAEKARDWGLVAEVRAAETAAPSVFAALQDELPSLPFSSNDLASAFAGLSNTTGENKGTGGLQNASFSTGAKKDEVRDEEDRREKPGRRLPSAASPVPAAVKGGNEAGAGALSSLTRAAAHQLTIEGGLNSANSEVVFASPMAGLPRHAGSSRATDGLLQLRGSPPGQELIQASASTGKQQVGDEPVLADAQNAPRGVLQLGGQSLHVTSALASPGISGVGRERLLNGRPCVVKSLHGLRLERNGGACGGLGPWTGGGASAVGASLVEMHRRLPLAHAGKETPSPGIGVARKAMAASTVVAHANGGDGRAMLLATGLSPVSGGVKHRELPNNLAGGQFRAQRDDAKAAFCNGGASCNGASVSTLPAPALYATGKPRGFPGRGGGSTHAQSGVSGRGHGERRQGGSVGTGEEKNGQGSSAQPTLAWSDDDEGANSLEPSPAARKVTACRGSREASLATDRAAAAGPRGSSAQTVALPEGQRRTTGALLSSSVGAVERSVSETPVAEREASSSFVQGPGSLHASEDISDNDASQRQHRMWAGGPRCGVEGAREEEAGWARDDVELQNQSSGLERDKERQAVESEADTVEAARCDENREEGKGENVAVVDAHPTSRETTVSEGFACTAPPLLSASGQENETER

No constants are given. Whether binding was seen depends on the method and setting. Binding seen in cells or lysates may run through a third protein. Here binding means that the protein was enriched with, or labelled near, the bait; the list need not be complete. Where a sequence is shown, tags or fusion partners need not be part of it.

One experiment deals with T1, GCN5a^HA (lysine acetyltransferase GCN5a, endogenously tagged with 3xHA, Pru strain) (Toxoplasma gondii (endogenous in Pru strain parasites)) (UniProt S8GIK3).
T1 sequence: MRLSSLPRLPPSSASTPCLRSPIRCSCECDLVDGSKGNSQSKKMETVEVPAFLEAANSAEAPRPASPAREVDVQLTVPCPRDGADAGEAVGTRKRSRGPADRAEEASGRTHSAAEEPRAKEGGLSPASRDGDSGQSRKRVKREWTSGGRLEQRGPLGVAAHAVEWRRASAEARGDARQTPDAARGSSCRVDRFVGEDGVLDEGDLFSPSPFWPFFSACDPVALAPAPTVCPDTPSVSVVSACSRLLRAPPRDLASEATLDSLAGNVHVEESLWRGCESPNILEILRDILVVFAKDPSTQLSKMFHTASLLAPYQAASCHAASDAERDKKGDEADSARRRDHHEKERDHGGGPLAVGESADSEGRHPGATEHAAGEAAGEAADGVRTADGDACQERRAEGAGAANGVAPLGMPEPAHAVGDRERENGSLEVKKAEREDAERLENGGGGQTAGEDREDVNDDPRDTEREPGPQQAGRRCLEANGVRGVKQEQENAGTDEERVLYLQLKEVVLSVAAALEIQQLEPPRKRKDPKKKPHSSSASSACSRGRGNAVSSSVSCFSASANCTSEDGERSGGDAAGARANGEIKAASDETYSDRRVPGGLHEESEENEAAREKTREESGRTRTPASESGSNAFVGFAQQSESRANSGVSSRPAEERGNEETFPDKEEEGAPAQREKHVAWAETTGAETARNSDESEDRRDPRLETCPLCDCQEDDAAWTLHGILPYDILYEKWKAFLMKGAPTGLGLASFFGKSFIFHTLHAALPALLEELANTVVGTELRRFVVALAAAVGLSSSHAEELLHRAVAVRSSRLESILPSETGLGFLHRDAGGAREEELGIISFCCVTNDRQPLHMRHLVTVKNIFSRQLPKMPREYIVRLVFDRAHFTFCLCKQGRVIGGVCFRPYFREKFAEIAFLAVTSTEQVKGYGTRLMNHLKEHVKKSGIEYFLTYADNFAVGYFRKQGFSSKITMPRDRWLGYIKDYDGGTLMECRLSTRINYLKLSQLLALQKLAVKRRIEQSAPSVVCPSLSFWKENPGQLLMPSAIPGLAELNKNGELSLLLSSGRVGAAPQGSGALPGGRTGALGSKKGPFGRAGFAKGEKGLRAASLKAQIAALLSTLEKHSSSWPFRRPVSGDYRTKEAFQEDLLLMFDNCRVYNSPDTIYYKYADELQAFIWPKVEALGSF
As to the kind of experiment: affinity purification with mass spectrometry; single pull-down (co-IP) from Pru GCN5a^HA parasites after 48 h alkaline stress; low peptide yields, called a preliminary account.
Consider AP2X-5, Pru strain, for which the binding entry is “binds”. For “PHD-finger domain-containing protein (TGGT1_234900), Pru strain”, the binding result was “binds”. AP2XII-4, Pru strain: the binding result is “binds”. The same measure, in the same setting: under AP2V-1, Pru strain stands “binds”; under AP2VIIb-1/ADA2-B, Pru strain, “binds”.

Another experiment has as its target T2, GCN5a^HA (lysine acetyltransferase GCN5a, endogenously tagged with 3xHA, RH strain) (Toxoplasma gondii (endogenous in RH strain parasites)) (UniProt S8GIK3).
T2 sequence: T1 sequence
Put plainly: affinity purification with mass spectrometry; RH-GCN5a^HA parasites, no stress or 48 h alkaline stress, three biological replicates each; whole cell lysate (50 mM Tris-HCl pH 7.4, 150 mM NaCl, 1 mM MgCl2, 0.5% NP-40, 10% glycerol), precleared with mouse IgG beads, anti-HA magnetic beads overnight at 4°C; untagged RH parasites as control; hits not detected in the parental strain and with at least five peptides in two of three replicates.
With AP2XII-4, RH strain, the binding result is reported as “binds”.

AP2V-1, RH strain: the binding entry is on record as “binds”. In the case of AP2X-5, RH strain, the binding entry is “binds”. For the substance “PHD-finger domain-containing protein (TGGT1_234900), RH strain”, the binding result is “binds”. For the substance “AP2VIIb-1/ADA2-B, RH strain (from UniProt Q2LKW8)”, the binding result is listed as “binds”.
